This assay relates to HEK293A TEAD-LUC reporter. Briefly: TEAD-luciferase reporter activity (YAP activation), robust Z score vs plate; higher = stronger YAP/TEAD activation. Conditions: 24 h.

SMILES strings stand for the structures. Structures can show the parent of a compound that is named as a salt. Some of the results follow. Single values are uncertain here, since repeats match poorly.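 Human kidney-derived cells stably carry a construct in which eight TEAD-binding elements drive luciferase, measured by luminescence in a drug-repurposing library screen. A hit is any compound whose signal exceeds the plate mean by more than five robust Z scores.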

Consider `COc1ccc(-c2nc(OC)nn2-c2ccc(OC)cc2)cc1`, for which the TEAD-luciferase reporter activity is, setting by setting: (compound concentration: 200 nM) inactive: -2.79; (compound concentration: 2 uM) inactive: -1.57; (compound concentration: 10 uM) inactive: -0.22.

For `CC(COc1ccccc1)NC(C)C(O)c1ccc(OC(=O)C(C)(C)C)cc1` (configuration not stated) [isoxsuprine pivalate], the TEAD-luciferase reporter activity is, setting by setting: (compound concentration: 200 nM) inactive: 0.442; (compound concentration: 2 uM) inactive: -0.0527; (compound concentration: 10 uM) inactive: 1.73.

Consider `Clc1ccc(CSC(Cn2ccnc2)c2ccc(Cl)cc2Cl)cc1` (configuration not stated) [Sulconazole (nitrate)], for which the TEAD-luciferase reporter activity (compound concentration: 2 uM) is inactive: -0.0835.

As for `Clc1ccc(CSC(Cn2ccnc2)c2ccc(Cl)cc2Cl)cc1` (configuration not stated), the TEAD-luciferase reporter activity by setting is: (compound concentration: 200 nM) inactive: -0.453; (compound concentration: 10 uM) inactive: -0.183.

Consider `Cn1c(C#N)ccc1-c1ccc2c(c1)C(C)(C)OC(=S)N2` [tanaproget], for which the TEAD-luciferase reporter activity was inactive: 0.758 (compound concentration: 200 nM), inactive: -2.11 (compound concentration: 2 uM) and inactive: -0.812 (compound concentration: 10 uM).

As to `CCCCN(CCCC)CCC(O)c1cc2c(Cl)cc(Cl)cc2c2cc(C(F)(F)F)ccc12` (configuration not stated) [Halofantrine HCl], the TEAD-luciferase reporter activity by setting is: (compound concentration: 200 nM) inactive: -0.181; (compound concentration: 2 uM) inactive: -0.547; (compound concentration: 10 uM) inactive: 0.676.

In the case of `COc1ccc(Cl)cc1C(=O)NCCc1ccc(C(=O)O)cc1` [meglitinide], the TEAD-luciferase reporter activity was inactive: 0.221 (compound concentration: 200 nM), inactive: -0.573 (compound concentration: 2 uM) and inactive: -0.895 (compound concentration: 10 uM).

As for `COc1ccc2nc3n(c(=O)c2c1)CCC3`, the TEAD-luciferase reporter activity is inactive: -1.47 (compound concentration: 200 nM), inactive: 0.542 (compound concentration: 2 uM) and inactive: -1.59 (compound concentration: 10 uM).

Turning to `CNC(=O)COc1cccc(Nc2ncc(F)c(Nc3ccc4c(c3)NC(=O)C(F)(F)O4)n2)c1`, the TEAD-luciferase reporter activity (compound concentration: 200 nM) is inactive: -1.85, the TEAD-luciferase reporter activity (compound concentration: 2 uM) was inactive: -1.63 and the TEAD-luciferase reporter activity (compound concentration: 10 uM) was inactive: 0.0434.

For the molecule `C[C@@H](c1nc(-c2ccc(C#N)cc2)cs1)[C@](O)(Cn1cncn1)c1cc(F)ccc1F` [Isavuconazole], the TEAD-luciferase reporter activity reads like this: (compound concentration: 200 nM) inactive: -0.345; (compound concentration: 2 uM) inactive: -1.96; (compound concentration: 10 uM) inactive: -0.974.

Regarding `N=C(N)NCCC[C@H](N)C(=O)NCC(=O)N[C@@H](CC(=O)O)C(=O)O`, the TEAD-luciferase reporter activity (compound concentration: 200 nM) is inactive: -1.45, the TEAD-luciferase reporter activity (compound concentration: 2 uM) is inactive: 0.0015 and the TEAD-luciferase reporter activity (compound concentration: 10 uM) was inactive: -0.152.

For the molecule `CCCCc1cc(C(=O)OC)cc(=O)n1Cc1ccc(-c2ccccc2-c2nnn[nH]2)cc1F`, the TEAD-luciferase reporter activity is inactive: -0.136 (compound concentration: 200 nM), inactive: -0.238 (compound concentration: 2 uM) and inactive: 2.35 (compound concentration: 10 uM).

For the molecule `C[N+](C)(C)CCCCCC[N+](C)(C)C`, the TEAD-luciferase reporter activity was inactive: 1.47 (compound concentration: 200 nM), inactive: 0.0835 (compound concentration: 2 uM) and inactive: 2.43 (compound concentration: 10 uM).

As for `CCOc1ncc(S(=O)(=O)N2CCN(CC)CC2)cc1-c1nc(O)c2nn(CCOC)c(CC)c2n1`, the TEAD-luciferase reporter activity is, setting by setting: (compound concentration: 200 nM) inactive: -0.412; (compound concentration: 2 uM) inactive: -0.111; (compound concentration: 10 uM) inactive: 0.113.

In the case of `Nc1nc(N)c2nc(-c3cccc(O)c3)c(-c3cccc(O)c3)nc2n1`, the TEAD-luciferase reporter activity reads like this: (compound concentration: 200 nM) inactive: -0.994; (compound concentration: 2 uM) inactive: -1.07; (compound concentration: 10 uM) inactive: 0.181.

For the molecule `OC(COc1cccc2[nH]ccc12)CN1CCC(COc2ccccc2)CC1` (configuration not stated), the TEAD-luciferase reporter activity runs as follows: (compound concentration: 200 nM) inactive: -0.991; (compound concentration: 2 uM) inactive: 0.458; (compound concentration: 10 uM) inactive: -0.69.

Regarding `CC1CC(OC(=O)c2ccccc2O)CC(C)(C)C1` (configuration not stated), the TEAD-luciferase reporter activity is inactive: -1.97 (compound concentration: 200 nM), inactive: 0.402 (compound concentration: 2 uM) and inactive: -1.46 (compound concentration: 10 uM).

For the molecule `COc1cc(C(=O)NC2CCCNC2)cc(OC)c1OC` (configuration not stated), the TEAD-luciferase reporter activity was inactive: -2.12 (compound concentration: 200 nM) and inactive: 0.843 (compound concentration: 10 uM).

Turning to `COc1cc(C(=O)NC2CCCNC2)cc(OC)c1OC` (configuration not stated) [troxipide], the TEAD-luciferase reporter activity (compound concentration: 2 uM) is inactive: 4.95.

For the molecule `S=P(N1CC1)(N1CC1)N1CC1`, the TEAD-luciferase reporter activity is inactive: 1.98 (compound concentration: 200 nM), inactive: -1.3 (compound concentration: 2 uM) and inactive: -1.22 (compound concentration: 10 uM).

Take `O=C(O)/C=C/c1ccc(-c2nc3c([nH]2)c(=O)n(CC2CCCCC2)c(=O)n3CC2CCCCC2)cc1`: the TEAD-luciferase reporter activity by setting is: (compound concentration: 200 nM) inactive: 2.36; (compound concentration: 10 uM) inactive: 3.

Consider `O=C(O)/C=C/c1ccc(-c2nc3c([nH]2)c(=O)n(CC2CCCCC2)c(=O)n3CC2CCCCC2)cc1` [Pharmaprojects No. 4934], for which the TEAD-luciferase reporter activity (compound concentration: 2 uM) was inactive: -0.764.

Turning to `CSCC[C@@H]1NC(=O)[C@H](CC(C)C)NC(=O)[C@H]2CNC(=O)C[C@@H](NC1=O)C(=O)N[C@H](Cc1c[nH]c3ccccc13)C(=O)N[C@@H](Cc1ccccc1)C(=O)N2`, the TEAD-luciferase reporter activity was inactive: -0.877 (compound concentration: 200 nM), inactive: -0.82 (compound concentration: 2 uM) and inactive: 0.326 (compound concentration: 10 uM).

Take `COc1ccc(OC[C@H]2CN(C)CC[C@@H]2c2ccccc2)cc1`: the TEAD-luciferase reporter activity reads like this: (compound concentration: 200 nM) inactive: -0.559; (compound concentration: 2 uM) inactive: -0.0392; (compound concentration: 10 uM) inactive: -1.7.

As for `CCCCc1nnc(S)n1-c1ccccc1`, the TEAD-luciferase reporter activity (compound concentration: 200 nM) was inactive: 1.86, the TEAD-luciferase reporter activity (compound concentration: 2 uM) was inactive: -0.741 and the TEAD-luciferase reporter activity (compound concentration: 10 uM) is active: 6.47.

In the case of `Cc1cc(CC(C)CC(C)(C)C)n(O)c(=O)c1` (configuration not stated), the TEAD-luciferase reporter activity by setting is: (compound concentration: 200 nM) inactive: 0.0967; (compound concentration: 2 uM) inactive: -0.885; (compound concentration: 10 uM) inactive: -0.952.

For the molecule `Cc1ccsc1C(=CCCN1CCC[C@@H](C(=O)O)C1)c1sccc1C` [tiagabine], the TEAD-luciferase reporter activity (compound concentration: 2 uM) was inactive: -1.79.

As to `Cc1ccsc1C(=CCCN1CCC[C@@H](C(=O)O)C1)c1sccc1C`, the TEAD-luciferase reporter activity was inactive: -2.66 (compound concentration: 200 nM) and inactive: 2.8 (compound concentration: 10 uM).

For `CCCCCOc1cccc(NC(=O)O[C@H]2CCCC[C@@H]2N2CCCC2)c1` [trapencaine], the TEAD-luciferase reporter activity (compound concentration: 200 nM) is inactive: -0.0544, the TEAD-luciferase reporter activity (compound concentration: 2 uM) is inactive: -0.106 and the TEAD-luciferase reporter activity (compound concentration: 10 uM) is inactive: 1.02.

In the case of `CC1(C)CC1(C)C` [1,1,2,2-Tetramethylcyclopropane], the TEAD-luciferase reporter activity runs as follows: (compound concentration: 200 nM) inactive: 1.13; (compound concentration: 2 uM) inactive: -1.53; (compound concentration: 10 uM) inactive: -1.47.

`O=C(O)C1(CN2CCC(COc3noc4cccc(OCC(F)(F)F)c34)CC2)CCOCC1`: the TEAD-luciferase reporter activity reads like this: (compound concentration: 200 nM) inactive: -0.968; (compound concentration: 2 uM) inactive: -0.0731; (compound concentration: 10 uM) inactive: 0.858.

As to `COc1cc(-n2cnc3cc(-c4ccc(Cl)cc4)sc3c2=O)ccc1N1CC[C@@H](O)C1`, the TEAD-luciferase reporter activity was inactive: -0.728 (compound concentration: 200 nM), inactive: -0.757 (compound concentration: 2 uM) and inactive: 1.1 (compound concentration: 10 uM).

Take `CN(C)c1ccccc1CS(=O)c1nc2ccccc2[nH]1` (configuration not stated): the TEAD-luciferase reporter activity was inactive: -0.797 (compound concentration: 200 nM), inactive: -1.24 (compound concentration: 2 uM) and inactive: -0.382 (compound concentration: 10 uM).

For `COc1ccc(/C=C/CCCCOc2ccc3c(=O)c4cc(C(=O)O)ccc4oc3c2CCC(=O)O)cc1`, the TEAD-luciferase reporter activity by setting is: (compound concentration: 200 nM) inactive: -1.01; (compound concentration: 2 uM) inactive: 1.17; (compound concentration: 10 uM) inactive: -0.447.

As to `COc1cc(C(C)C)c(Oc2cnc(N)nc2N)cc1S(N)(=O)=O`, the TEAD-luciferase reporter activity (compound concentration: 200 nM) was inactive: 3.64, the TEAD-luciferase reporter activity (compound concentration: 2 uM) was inactive: -1.9 and the TEAD-luciferase reporter activity (compound concentration: 10 uM) is inactive: -0.116.

Regarding `CN1CCC(=C(c2ccccc2)c2ccccc2)C1`, the TEAD-luciferase reporter activity runs as follows: (compound concentration: 200 nM) inactive: -0.173; (compound concentration: 2 uM) inactive: -1.51; (compound concentration: 10 uM) inactive: 2.88.

As to `CCCOc1ccccc1-c1nc(O)c2nn[nH]c2n1` [zaprinast], the TEAD-luciferase reporter activity (compound concentration: 200 nM) is inactive: 2.33, the TEAD-luciferase reporter activity (compound concentration: 2 uM) is inactive: -0.694 and the TEAD-luciferase reporter activity (compound concentration: 10 uM) is inactive: 0.664.

`CCCCCCCCCCC(C)(C)C(=O)Nc1c(OC)cc(OC)cc1OC`: the TEAD-luciferase reporter activity is inactive: -2.91 (compound concentration: 200 nM), inactive: -0.677 (compound concentration: 2 uM) and inactive: 3.43 (compound concentration: 10 uM).

These data come from the supplement of paper PMC10735217.
